Some of these results come from one statement about several compounds together. No end group written: not given here.
Target: T1, human PTH-1 receptors (Homo sapiens, UniProt Q03431)
T1 construct: expressed in transfected cells
T1 sequence (Q03431 27-593): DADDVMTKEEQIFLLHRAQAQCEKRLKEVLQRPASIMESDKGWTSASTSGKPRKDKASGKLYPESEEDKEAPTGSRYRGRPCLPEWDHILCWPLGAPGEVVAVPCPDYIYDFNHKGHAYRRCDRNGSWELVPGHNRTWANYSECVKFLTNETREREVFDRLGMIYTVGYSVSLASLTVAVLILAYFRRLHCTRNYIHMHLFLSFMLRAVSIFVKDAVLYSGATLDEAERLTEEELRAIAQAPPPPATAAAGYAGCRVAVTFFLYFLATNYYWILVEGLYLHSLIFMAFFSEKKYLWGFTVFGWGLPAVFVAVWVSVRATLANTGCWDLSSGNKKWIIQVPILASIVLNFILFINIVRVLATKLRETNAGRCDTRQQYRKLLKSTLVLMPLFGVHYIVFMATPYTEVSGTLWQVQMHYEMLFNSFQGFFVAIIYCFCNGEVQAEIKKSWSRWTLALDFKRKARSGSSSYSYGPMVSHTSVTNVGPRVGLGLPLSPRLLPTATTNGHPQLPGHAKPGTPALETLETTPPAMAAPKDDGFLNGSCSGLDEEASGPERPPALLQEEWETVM
Assay: Radioligand competition binding with 125I-[Nle8,21,Tyr34]rat PTH-(1-34) in HKRK B7 cells
Conditions: human PTH-1 receptor
Protocol: HKRK B7 or EW5 cells (32), subclones of LLC-PKI renal epithelial cells that stably express human or rat PTH-1 receptors (950,000 and 320,000 receptors/cell, respectively), were maintained under 5% CO2 in air in Dulbecco's modified essential medium containing 7% fetal bovine serum (FBS) and 1% penicillin/streptomycin (GIBCO-BRL, Grand Island, N.Y.). HEK-293 and COS-7 cells were cultured similarly, except that 10% FBS was used in the medium. Cells were seeded into 24-well plates two days before assay at a density of 2-2.5×10^5 cells/well (HKRK B7 or EW 5 cells) or 6×10^5 cells/well (in 6-well plates) (HEK-293 cells). In experiments involving HEK-293 cells, DNA transfections were performed 24 hr after plating and inositol radiolabel was added 24 hr thereafter (see below). COS-7 cell transfections were performed as previously described (Gardella, T. J., et al., Endocrinology 132(5):2024-2030 (1993)) Radioligand competition binding assays were performed at 2-8° C. for 6 hr using ^125I-[Nle^8,21,[…]]rat PTH-(1-34) (100,000 cpm/well) in the presence or absence of non-radioactive hPTH-(1-34) analogs. Cell layers were washed three times before solubilization for determination of cell-associated radioactivity.

Substance: SVSEIQLMHNLGKHLNSMERVEWLRKKL-NH2 [hPTH-(1-28)]
- fold reduction in binding (apparent IC50 / affinity) compared with hPTH-(1-34): 30-100 fold

Source: patent publication US7479478B2, “Human parathyroid hormone modifications, preparation and use” (The General Hospital Corporation, priority 1998, dated 2009)
